Earlier results in patent US9375438B2, “Inhibitors of NCCa-ATP channels for therapy” (University of Maryland, Baltimore, priority 2007, dated 2016).
At least one compound was matched to its structure with a doubt left.

Tested on: SCI
Settings: SCI (Merola et al., 2002); cited from earlier work

In the case of `C[C@H]1C[C@@H]2[C@H]([C@@H](O)C[C@@]3(C)[C@H]2CC[C@]3(O)C(=O)CO)[C@@]2(C)C=CC(=O)C=C12` [Methylprednisolone], the “development of PHN” value is given as “does not alter” and the edema is given as “improves”.
